For experiment [1], the target named is CBP (human (endogenous in 293T, A549)) (UniProt Q92793). In words: co-IP; nuclear extracts of 293T and A549 cells with or without EGF; HCC827 and HCC4006 cells with or without gefitinib; also with SHCBP1 siRNA, ectopic SHCBP1 or ICG-001.
Experiment [2] addresses CBP-Flag (UniProt Q92793). In words: pull-down; CBP-Flag immunoprecipitated from 293T lysates on anti-Flag affinity gel, incubated with purified β-catenin-GST (100 ng) and SHCBP1-HA protein at indicated concentrations for 2 h, washed six times, immunoblot for Flag, GST and HA; both purified. Background: Immunoblotting shows a protein as a band on a membrane.
Experiment [3] deals with T1, SHCBP1-HA (human) (UniProt Q8NEM2).
T1 sequence: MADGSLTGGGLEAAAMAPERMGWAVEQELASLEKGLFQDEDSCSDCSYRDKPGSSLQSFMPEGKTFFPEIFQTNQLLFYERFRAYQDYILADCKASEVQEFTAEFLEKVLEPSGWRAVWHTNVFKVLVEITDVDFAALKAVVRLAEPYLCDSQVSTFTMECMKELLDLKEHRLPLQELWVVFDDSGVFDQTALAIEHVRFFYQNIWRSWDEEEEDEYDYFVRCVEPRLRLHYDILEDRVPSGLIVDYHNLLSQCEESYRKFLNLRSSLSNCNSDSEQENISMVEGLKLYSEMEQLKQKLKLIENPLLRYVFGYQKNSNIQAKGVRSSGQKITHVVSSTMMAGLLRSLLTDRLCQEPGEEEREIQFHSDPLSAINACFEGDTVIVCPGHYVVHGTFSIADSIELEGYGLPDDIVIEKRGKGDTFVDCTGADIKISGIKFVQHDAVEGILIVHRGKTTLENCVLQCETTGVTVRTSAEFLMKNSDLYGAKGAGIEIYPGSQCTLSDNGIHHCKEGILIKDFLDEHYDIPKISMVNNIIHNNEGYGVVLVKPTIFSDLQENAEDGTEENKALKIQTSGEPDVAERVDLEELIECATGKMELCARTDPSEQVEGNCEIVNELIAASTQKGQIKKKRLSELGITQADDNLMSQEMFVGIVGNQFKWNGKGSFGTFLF
In words: pull-down; modified peptide pull-down: FLAG-β-catenin purified from 293T extracts incubated with SHCBP1-HA affinity agarose beads for 4 h at 4 °C, washed, immunoblot with anti-FLAG antibody; both purified.

The chains behind the UniProt entries cited, without tags or fusion partners.
UniProt Q92793: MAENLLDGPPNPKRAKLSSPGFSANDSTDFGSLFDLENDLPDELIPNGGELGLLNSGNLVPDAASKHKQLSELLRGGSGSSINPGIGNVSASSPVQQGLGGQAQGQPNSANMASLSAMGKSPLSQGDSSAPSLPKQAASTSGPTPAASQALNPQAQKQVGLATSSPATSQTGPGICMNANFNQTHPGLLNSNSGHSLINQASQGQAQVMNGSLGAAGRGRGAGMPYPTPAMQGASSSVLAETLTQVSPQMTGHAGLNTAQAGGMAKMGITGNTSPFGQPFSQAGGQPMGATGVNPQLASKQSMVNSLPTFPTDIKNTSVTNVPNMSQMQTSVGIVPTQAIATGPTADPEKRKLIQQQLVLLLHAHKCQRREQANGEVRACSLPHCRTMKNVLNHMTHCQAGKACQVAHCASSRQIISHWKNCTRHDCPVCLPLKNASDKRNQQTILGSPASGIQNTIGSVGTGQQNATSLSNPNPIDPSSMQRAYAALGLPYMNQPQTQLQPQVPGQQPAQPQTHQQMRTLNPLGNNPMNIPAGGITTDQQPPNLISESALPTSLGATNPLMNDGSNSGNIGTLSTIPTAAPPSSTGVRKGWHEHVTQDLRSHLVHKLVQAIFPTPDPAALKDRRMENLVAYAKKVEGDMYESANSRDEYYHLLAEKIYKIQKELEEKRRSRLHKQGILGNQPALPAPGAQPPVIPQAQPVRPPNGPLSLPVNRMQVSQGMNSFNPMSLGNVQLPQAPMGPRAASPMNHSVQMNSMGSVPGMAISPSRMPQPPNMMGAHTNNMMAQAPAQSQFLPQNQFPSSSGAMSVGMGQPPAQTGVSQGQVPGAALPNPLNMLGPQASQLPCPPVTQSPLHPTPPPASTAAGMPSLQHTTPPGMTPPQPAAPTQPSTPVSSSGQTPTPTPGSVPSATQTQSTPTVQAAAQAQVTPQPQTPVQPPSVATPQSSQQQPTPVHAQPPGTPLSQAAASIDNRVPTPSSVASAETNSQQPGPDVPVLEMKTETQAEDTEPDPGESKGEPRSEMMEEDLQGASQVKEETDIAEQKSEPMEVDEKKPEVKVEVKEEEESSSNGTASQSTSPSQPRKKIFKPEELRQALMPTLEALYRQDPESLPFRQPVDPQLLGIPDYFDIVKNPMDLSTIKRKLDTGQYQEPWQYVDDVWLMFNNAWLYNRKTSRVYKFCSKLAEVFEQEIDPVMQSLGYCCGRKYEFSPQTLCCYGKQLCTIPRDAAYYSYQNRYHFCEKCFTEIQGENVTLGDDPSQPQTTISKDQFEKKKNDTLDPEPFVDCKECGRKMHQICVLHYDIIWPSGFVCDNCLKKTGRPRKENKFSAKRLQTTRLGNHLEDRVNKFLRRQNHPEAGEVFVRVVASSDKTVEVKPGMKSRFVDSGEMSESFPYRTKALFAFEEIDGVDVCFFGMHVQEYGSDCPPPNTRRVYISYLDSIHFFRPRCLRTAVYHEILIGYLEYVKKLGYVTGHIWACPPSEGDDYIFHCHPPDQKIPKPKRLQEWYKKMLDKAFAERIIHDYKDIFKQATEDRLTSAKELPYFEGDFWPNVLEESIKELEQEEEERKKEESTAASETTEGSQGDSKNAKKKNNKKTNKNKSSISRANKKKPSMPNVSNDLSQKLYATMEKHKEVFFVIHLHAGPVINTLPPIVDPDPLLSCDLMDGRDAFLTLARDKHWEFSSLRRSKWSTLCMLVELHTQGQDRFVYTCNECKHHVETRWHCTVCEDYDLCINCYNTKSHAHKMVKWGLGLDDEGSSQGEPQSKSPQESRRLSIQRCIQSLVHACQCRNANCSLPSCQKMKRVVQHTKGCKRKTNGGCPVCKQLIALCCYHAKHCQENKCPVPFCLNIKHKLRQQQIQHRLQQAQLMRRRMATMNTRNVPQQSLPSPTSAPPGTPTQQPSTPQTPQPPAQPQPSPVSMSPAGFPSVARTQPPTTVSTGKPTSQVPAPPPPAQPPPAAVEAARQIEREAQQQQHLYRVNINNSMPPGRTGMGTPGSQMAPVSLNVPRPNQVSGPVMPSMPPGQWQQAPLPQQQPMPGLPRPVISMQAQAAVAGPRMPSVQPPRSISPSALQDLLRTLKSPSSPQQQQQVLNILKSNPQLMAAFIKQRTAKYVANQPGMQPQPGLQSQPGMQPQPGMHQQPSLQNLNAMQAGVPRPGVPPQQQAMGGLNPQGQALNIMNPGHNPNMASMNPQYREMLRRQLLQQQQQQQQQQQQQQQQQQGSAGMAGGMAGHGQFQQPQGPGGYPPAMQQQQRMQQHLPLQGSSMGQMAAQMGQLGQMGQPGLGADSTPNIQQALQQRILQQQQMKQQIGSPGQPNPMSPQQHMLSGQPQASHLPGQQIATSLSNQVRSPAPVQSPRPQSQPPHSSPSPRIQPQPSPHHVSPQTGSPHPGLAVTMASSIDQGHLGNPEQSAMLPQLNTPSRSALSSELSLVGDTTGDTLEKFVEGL
UniProt P35222: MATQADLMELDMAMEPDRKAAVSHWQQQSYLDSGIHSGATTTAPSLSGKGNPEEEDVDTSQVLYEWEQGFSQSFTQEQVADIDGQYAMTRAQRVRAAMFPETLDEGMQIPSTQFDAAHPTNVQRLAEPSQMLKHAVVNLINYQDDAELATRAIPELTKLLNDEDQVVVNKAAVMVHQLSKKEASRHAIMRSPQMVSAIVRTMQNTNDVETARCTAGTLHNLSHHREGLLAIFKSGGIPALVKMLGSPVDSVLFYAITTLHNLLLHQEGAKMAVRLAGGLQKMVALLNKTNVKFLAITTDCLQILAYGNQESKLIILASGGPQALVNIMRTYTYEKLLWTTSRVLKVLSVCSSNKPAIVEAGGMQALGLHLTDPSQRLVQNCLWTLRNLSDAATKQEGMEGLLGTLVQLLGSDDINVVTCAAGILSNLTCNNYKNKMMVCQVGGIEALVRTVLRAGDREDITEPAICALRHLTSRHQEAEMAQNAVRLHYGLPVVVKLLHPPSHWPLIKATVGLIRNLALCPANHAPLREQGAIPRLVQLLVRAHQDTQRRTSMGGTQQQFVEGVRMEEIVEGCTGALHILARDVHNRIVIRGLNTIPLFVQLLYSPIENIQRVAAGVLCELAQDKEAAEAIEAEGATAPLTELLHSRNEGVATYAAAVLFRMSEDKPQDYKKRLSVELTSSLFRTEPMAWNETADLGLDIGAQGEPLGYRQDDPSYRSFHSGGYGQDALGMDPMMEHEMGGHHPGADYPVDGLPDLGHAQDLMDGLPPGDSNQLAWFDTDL

Substrate in experiment [4]: CBP (human (endogenous in 293T, A549)) (UniProt Q92793)
The experiment is described as follows: pull-down; modified in vitro peptide pull-down: purified Flag-SHCBP1 incubated with a 293T extraction, immunoblot with anti-Flag antibody; only the binder purified.

For experiment [5], the target named is T2, SHC adaptor protein 1 (SHC1) (human (endogenous in 293T, A549)) (UniProt P29353).
T2 sequence: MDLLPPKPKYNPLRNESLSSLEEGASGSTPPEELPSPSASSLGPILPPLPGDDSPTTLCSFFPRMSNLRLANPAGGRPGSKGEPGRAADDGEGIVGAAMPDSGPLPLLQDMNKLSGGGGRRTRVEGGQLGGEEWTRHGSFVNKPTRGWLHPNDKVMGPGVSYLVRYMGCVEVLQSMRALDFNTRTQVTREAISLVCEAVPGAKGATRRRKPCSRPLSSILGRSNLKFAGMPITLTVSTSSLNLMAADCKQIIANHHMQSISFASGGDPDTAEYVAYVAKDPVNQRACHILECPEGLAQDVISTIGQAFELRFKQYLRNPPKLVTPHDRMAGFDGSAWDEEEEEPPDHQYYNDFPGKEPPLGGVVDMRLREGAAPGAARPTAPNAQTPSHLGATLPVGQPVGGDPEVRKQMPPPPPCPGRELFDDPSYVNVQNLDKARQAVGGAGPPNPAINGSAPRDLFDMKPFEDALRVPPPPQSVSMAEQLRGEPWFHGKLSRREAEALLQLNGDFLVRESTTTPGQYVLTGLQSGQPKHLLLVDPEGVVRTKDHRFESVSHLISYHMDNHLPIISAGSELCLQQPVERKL
The experiment is described as follows: co-IP; immunoprecipitation against SHC1, western blot for SHCBP1; 293T and A549 cells without EGF; with or without EGFR depletion.

The target in experiment [6] is β-catenin (human (endogenous in 293T, A549, HCC827, HCC4006)) (UniProt P35222). In words: co-IP; nuclear extracts of 293T and A549 cells with or without EGF; HCC827 and HCC4006 cells with or without gefitinib; also with SHCBP1 siRNA, ectopic SHCBP1 or ICG-001.
Experiment [7] shares this target. The experiment is described as follows: co-IP; 293T and A549 cells, with and without EGF stimulation; western blot (Fig. 1g, 1i).
The target of experiment [8] is HA-β-catenin (UniProt P35222). In words: co-IP; FLAG-tagged serially truncated SHCBP1 constructs and HA-β-catenin co-transfected in 293T.

These are yes or no findings as the source states them, for the method shown. For some assays here: Binding seen in cells or lysates may run through a third protein. Some binding calls cover weakened binding; strength is not graded here. For some assays here: Tags and fused reporters may be left off the sequences shown.

We go through six molecules from article PMC6355651.

On to β-catenin (from UniProt P35222 1-781), for which the binding result in experiment [1] is listed as “binds”.

Take “β-catenin-GST (from UniProt P35222 1-781)”: the binding result in experiment [2] is “binds”.

Take “FLAG-β-catenin (from UniProt P35222 1-781)”: the binding result in experiment [3] is on record as “binds”.

B1: Flag-tagged SHCBP1 (protein, UniProt Q8NEM2 1-672)
chain: T1 sequence
Take B1: the binding entry in experiment [4] is listed as “binds”.

B2: SHC-binging protein 1 (SHCBP1) (protein, UniProt Q8NEM2 1-672)
chain: T1 sequence
B2: the binding result in experiment [5], in experiment [6] and in experiment [7] was “binds” each time.

B3: FLAG-tagged truncated SHCBP1 (1–428) (domain or fragment, UniProt Q8NEM2 1-428)
chain: MADGSLTGGGLEAAAMAPERMGWAVEQELASLEKGLFQDEDSCSDCSYRDKPGSSLQSFMPEGKTFFPEIFQTNQLLFYERFRAYQDYILADCKASEVQEFTAEFLEKVLEPSGWRAVWHTNVFKVLVEITDVDFAALKAVVRLAEPYLCDSQVSTFTMECMKELLDLKEHRLPLQELWVVFDDSGVFDQTALAIEHVRFFYQNIWRSWDEEEEDEYDYFVRCVEPRLRLHYDILEDRVPSGLIVDYHNLLSQCEESYRKFLNLRSSLSNCNSDSEQENISMVEGLKLYSEMEQLKQKLKLIENPLLRYVFGYQKNSNIQAKGVRSSGQKITHVVSSTMMAGLLRSLLTDRLCQEPGEEEREIQFHSDPLSAINACFEGDTVIVCPGHYVVHGTFSIADSIELEGYGLPDDIVIEKRGKGDTFVDCTG
With B3, the binding result in experiment [8] was “binds”.
